{
  "source": "paper PMC7707610",
  "binders": {"B1": {"name": "soluble recombinant Der p 2 (rDer p 2) (protein, UniProt P49278 18-146)", "chain": "DQVDVKDCANHEIKKVLVPGCHGSEPCIIHRGKPFQLEAVFEANQNTKTAKIEIKASIDGLEVDVPGIDPNACHYMKCPLVKGQQYDIKYTWNVPKIAPKSENVVVTVKVMGDDGVLACAIATHAKIRD"}},
  "target": "soluble recombinant Der p 2 (rDer p 2) (Dermatophagoides pteronyssinus) (UniProt P49278)",
  "assay": "dynamic light scattering; purified rDer p 2-His in solution; conditions of the measurement not told; both purified",
  "note": "These are yes or no findings as the source states them, for the method shown.",
  "data": [
    {"binder": "B1", "values": [
      {"measurement": "binding", "result": "no binding"}
    ]}
  ]
}
